{"source": "PubChem BioAssay AID1053208 (Peter MacCallum Cancer Centre, 2014)", "purpose": "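Genes whose silencing cuts survival of bone tumour cells only with doxorubicin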 (primary screen)", "cell system": "mouse osteosarcoma cells, early-passage culture from an engineered mouse model of fibroblastic bone tumour", "reagent": "siRNA pool against mouse genes, 40 nM", "duration": "about 120 h (48 h before drug, then 72 h with drug)", "treatment": "doxorubicin 100 nM for 72 h, roughly 30-40% inhibitory dose", "detection": "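Viability read as ATP luminescence after 72 h of 100 nM doxorubicin or none, duplicate wells averaged, scaled to non-targeting siRNA, then expressed as robust z-scores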", "scale": "viability z-score with doxorubicin: higher = more viable cells under doxorubicin; viability z-score without drug: higher = more viable cells with knock-down alone", "rule for the call": "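Called active if knock-down leaves viability unchanged without drug (z within -2 to 2) but lowers it with doxorubicin (z at or under -2)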", "note": "The deposit covers about 17,000 reagents; shown is a part drawn at random. 788 of them (4.7%) count as active. 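Calls rest on z-score classes alone; an extra cut-off of viability at most 70% of control was not applied to them.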 Not all columns of the deposit are shown. Reagent sequences are not shown."}
{"Target gene":"Ehbp1l1 (GeneID 114601)","combined z-score class":"no change with or without drug","viability z-score with doxorubicin":-0.9,"viability z-score without drug":-0.67,"Outcome":"inactive"}
{"Target gene":"Taf13 (GeneID 99730)","combined z-score class":"no change with or without drug","viability z-score with doxorubicin":-0.45,"viability z-score without drug":-0.84,"Outcome":"inactive"}
{"Target gene":"Ppp2ca (GeneID 19052)","combined z-score class":"no change with or without drug","viability z-score with doxorubicin":0.79,"viability z-score without drug":-0.51,"Outcome":"inactive"}
{"Target gene":"Eif4h (GeneID 22384)","combined z-score class":"no change with or without drug","viability z-score with doxorubicin":0,"viability z-score without drug":0.17,"Outcome":"inactive"}
{"Target gene":"Gng12 (GeneID 14701)","combined z-score class":"no change with or without drug","viability z-score with doxorubicin":1.46,"viability z-score without drug":1.85,"Outcome":"inactive"}
{"Target gene":"Lyar (GeneID 17089)","combined z-score class":"no change with or without drug","viability z-score with doxorubicin":0.45,"viability z-score without drug":-0.51,"Outcome":"inactive"}
{"Target gene":"Lactb (GeneID 80907)","combined z-score class":"no change with or without drug","viability z-score with doxorubicin":0,"viability z-score without drug":0.67,"Outcome":"inactive"}
{"Target gene":"Ngrn (GeneID 83485)","combined z-score class":"no change with or without drug","viability z-score with doxorubicin":1.12,"viability z-score without drug":1.18,"Outcome":"inactive"}
{"Target gene":"Rmdn1 (GeneID 66302)","combined z-score class":"no change with or without drug","viability z-score with doxorubicin":0.34,"viability z-score without drug":-0.51,"Outcome":"inactive"}
{"Target gene":"Vmn1r43 (GeneID 113847)","combined z-score class":"no change with or without drug","viability z-score with doxorubicin":0.9,"viability z-score without drug":1.18,"Outcome":"inactive"}
{"Target gene":"Or4f59 (GeneID 258359)","combined z-score class":"no change with or without drug","viability z-score with doxorubicin":-0.67,"viability z-score without drug":-0.67,"Outcome":"inactive"}
{"Target gene":"Mafa (GeneID 378435)","combined z-score class":"no change with or without drug","viability z-score with doxorubicin":-0.22,"viability z-score without drug":-0.17,"Outcome":"inactive"}

Entries above whose gene name starts with L or l:
{"Target gene":"Lyar (GeneID 17089)","combined z-score class":"no change with or without drug","viability z-score with doxorubicin":0.45,"viability z-score without drug":-0.51,"Outcome":"inactive"}
{"Target gene":"Lactb (GeneID 80907)","combined z-score class":"no change with or without drug","viability z-score with doxorubicin":0,"viability z-score without drug":0.67,"Outcome":"inactive"}

Continued:
{"Target gene":"Tnfsf18 (GeneID 240873)","combined z-score class":"no change with or without drug","viability z-score with doxorubicin":0.67,"viability z-score without drug":1.52,"Outcome":"inactive"}
{"Target gene":"Prl7a2 (GeneID 19114)","combined z-score class":"no change with or without drug","viability z-score with doxorubicin":0.22,"viability z-score without drug":-0.34,"Outcome":"inactive"}
{"Target gene":"A730008H23Rik (GeneID 212427)","combined z-score class":"no change with or without drug","viability z-score with doxorubicin":-0.9,"viability z-score without drug":-1.35,"Outcome":"inactive"}
{"Target gene":"Phlda1 (GeneID 21664)","combined z-score class":"low cell count with doxorubicin only","viability z-score with doxorubicin":-2.7,"viability z-score without drug":-1.01,"Outcome":"active"}
{"Target gene":"Or5ac20 (GeneID 258997)","combined z-score class":"no change with or without drug","viability z-score with doxorubicin":-0.22,"viability z-score without drug":-0.51,"Outcome":"inactive"}
{"Target gene":"Capn9 (GeneID 73647)","combined z-score class":"no change with or without drug","viability z-score with doxorubicin":-0.9,"viability z-score without drug":-0.17,"Outcome":"inactive"}
{"Target gene":"Fntb (GeneID 110606)","combined z-score class":"no change with or without drug","viability z-score with doxorubicin":-0.9,"viability z-score without drug":-0.84,"Outcome":"inactive"}
{"Target gene":"Rnf126 (GeneID 70294)","combined z-score class":"no change with or without drug","viability z-score with doxorubicin":-0.56,"viability z-score without drug":0.17,"Outcome":"inactive"}
{"Target gene":"Kcnj11 (GeneID 16514)","combined z-score class":"no change with or without drug","viability z-score with doxorubicin":-0.45,"viability z-score without drug":0.34,"Outcome":"inactive"}
{"Target gene":"Slc30a3 (GeneID 22784)","combined z-score class":"no change with or without drug","viability z-score with doxorubicin":0,"viability z-score without drug":1.01,"Outcome":"inactive"}
{"Target gene":"Prom2 (GeneID 192212)","combined z-score class":"no change with or without drug","viability z-score with doxorubicin":-1.12,"viability z-score without drug":0.17,"Outcome":"inactive"}
{"Target gene":"Kifap3 (GeneID 16579)","combined z-score class":"no change with or without drug","viability z-score with doxorubicin":-0.22,"viability z-score without drug":1.69,"Outcome":"inactive"}
{"Target gene":"Or1o1 (GeneID 258504)","combined z-score class":"no change with or without drug","viability z-score with doxorubicin":0.9,"viability z-score without drug":-0.17,"Outcome":"inactive"}
{"Target gene":"Or5h19 (GeneID 258319)","combined z-score class":"no change with or without drug","viability z-score with doxorubicin":0.22,"viability z-score without drug":0.34,"Outcome":"inactive"}
{"Target gene":"Arfip2 (GeneID 76932)","combined z-score class":"low cell count with doxorubicin only","viability z-score with doxorubicin":-2.25,"viability z-score without drug":-1.18,"Outcome":"active"}
{"Target gene":"Snx5 (GeneID 69178)","combined z-score class":"no change with or without drug","viability z-score with doxorubicin":1.12,"viability z-score without drug":0.34,"Outcome":"inactive"}
